In the supplement of paper PMC10849652:
The other results are listed elsewhere or left out.

By UniProt entry, the sequences of proteins in these tests, tags left out. Where a name states a change or a piece, a line headed by the entry shows the natural chain unless it says otherwise.
UniProt O94889: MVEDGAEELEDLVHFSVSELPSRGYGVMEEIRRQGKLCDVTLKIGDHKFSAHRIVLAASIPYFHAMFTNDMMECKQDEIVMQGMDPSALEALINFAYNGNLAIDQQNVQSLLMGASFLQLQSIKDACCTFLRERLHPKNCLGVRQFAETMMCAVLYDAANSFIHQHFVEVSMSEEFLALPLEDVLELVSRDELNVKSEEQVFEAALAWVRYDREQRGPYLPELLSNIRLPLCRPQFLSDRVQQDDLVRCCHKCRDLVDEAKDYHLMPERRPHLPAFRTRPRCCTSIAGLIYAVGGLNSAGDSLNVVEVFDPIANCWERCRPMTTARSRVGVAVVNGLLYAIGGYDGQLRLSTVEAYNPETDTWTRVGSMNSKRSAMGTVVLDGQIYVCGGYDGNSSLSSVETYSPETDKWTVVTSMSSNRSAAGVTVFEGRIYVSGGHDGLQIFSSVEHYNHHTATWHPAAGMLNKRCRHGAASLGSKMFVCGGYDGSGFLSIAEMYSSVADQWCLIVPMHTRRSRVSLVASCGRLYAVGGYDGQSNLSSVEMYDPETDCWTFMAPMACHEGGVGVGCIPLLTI
UniProt Q9UN81: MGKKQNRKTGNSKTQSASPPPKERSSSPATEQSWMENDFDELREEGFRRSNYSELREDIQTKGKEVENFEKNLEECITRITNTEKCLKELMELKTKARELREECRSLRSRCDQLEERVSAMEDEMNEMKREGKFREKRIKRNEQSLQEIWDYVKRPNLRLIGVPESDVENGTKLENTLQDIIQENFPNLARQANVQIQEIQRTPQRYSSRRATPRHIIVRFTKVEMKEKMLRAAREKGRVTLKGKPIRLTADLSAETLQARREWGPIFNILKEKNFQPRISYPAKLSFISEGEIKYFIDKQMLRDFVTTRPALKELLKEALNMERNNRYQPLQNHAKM
UniProt O15066: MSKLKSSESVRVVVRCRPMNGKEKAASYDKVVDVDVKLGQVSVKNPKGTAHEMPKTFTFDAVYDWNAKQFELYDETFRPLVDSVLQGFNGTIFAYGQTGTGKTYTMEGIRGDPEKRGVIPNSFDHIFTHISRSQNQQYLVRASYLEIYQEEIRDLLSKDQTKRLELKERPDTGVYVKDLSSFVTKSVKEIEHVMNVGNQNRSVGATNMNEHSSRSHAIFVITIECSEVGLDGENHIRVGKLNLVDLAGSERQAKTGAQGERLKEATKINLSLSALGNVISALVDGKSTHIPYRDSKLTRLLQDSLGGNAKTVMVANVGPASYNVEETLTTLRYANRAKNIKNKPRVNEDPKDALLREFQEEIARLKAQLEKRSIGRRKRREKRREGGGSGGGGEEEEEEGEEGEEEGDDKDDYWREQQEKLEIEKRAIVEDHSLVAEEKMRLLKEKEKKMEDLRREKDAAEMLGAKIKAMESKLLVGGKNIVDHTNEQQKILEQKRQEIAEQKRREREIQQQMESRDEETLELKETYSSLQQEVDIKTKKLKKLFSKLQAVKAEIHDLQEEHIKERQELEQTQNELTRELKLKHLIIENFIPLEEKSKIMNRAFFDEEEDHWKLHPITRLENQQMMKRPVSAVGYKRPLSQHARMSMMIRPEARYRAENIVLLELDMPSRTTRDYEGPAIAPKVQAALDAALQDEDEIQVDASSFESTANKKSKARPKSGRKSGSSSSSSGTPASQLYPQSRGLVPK
UniProt Q8IVT5: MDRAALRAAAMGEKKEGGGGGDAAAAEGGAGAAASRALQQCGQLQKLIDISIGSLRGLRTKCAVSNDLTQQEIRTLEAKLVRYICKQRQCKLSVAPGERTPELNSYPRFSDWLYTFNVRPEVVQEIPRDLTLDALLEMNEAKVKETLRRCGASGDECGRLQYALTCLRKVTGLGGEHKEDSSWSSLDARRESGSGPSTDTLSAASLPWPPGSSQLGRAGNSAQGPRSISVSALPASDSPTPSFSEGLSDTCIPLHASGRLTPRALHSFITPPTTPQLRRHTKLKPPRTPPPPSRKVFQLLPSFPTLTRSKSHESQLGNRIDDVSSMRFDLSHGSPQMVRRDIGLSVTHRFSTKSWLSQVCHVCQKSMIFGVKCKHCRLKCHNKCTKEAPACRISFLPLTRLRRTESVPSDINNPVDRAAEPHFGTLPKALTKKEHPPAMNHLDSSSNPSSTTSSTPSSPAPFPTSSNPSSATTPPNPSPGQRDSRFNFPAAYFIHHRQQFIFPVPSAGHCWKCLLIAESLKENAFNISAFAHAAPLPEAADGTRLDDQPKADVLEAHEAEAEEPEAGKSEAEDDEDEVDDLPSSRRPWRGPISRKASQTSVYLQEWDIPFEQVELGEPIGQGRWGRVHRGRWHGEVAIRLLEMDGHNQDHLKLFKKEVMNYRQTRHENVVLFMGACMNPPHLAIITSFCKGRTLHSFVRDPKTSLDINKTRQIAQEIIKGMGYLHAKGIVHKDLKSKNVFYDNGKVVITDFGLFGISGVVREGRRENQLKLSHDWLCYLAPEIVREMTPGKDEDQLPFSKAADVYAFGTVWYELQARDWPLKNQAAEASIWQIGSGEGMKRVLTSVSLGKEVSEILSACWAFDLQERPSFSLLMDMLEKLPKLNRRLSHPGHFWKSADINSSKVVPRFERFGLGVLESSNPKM
UniProt O00629, whole entry, looked up: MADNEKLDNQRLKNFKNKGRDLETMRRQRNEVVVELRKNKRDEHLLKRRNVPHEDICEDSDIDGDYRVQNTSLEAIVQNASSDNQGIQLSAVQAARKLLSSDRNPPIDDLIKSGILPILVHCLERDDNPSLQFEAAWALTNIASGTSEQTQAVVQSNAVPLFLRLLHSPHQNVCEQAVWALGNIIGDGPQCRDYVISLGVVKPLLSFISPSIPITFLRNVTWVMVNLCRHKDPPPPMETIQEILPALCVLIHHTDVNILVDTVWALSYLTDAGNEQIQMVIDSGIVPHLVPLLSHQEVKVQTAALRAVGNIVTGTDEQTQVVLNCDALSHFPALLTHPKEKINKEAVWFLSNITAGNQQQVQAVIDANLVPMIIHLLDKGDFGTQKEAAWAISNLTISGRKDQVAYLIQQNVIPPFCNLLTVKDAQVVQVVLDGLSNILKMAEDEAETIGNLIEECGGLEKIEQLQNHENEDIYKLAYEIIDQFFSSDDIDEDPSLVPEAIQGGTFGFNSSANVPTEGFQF
UniProt Q15058: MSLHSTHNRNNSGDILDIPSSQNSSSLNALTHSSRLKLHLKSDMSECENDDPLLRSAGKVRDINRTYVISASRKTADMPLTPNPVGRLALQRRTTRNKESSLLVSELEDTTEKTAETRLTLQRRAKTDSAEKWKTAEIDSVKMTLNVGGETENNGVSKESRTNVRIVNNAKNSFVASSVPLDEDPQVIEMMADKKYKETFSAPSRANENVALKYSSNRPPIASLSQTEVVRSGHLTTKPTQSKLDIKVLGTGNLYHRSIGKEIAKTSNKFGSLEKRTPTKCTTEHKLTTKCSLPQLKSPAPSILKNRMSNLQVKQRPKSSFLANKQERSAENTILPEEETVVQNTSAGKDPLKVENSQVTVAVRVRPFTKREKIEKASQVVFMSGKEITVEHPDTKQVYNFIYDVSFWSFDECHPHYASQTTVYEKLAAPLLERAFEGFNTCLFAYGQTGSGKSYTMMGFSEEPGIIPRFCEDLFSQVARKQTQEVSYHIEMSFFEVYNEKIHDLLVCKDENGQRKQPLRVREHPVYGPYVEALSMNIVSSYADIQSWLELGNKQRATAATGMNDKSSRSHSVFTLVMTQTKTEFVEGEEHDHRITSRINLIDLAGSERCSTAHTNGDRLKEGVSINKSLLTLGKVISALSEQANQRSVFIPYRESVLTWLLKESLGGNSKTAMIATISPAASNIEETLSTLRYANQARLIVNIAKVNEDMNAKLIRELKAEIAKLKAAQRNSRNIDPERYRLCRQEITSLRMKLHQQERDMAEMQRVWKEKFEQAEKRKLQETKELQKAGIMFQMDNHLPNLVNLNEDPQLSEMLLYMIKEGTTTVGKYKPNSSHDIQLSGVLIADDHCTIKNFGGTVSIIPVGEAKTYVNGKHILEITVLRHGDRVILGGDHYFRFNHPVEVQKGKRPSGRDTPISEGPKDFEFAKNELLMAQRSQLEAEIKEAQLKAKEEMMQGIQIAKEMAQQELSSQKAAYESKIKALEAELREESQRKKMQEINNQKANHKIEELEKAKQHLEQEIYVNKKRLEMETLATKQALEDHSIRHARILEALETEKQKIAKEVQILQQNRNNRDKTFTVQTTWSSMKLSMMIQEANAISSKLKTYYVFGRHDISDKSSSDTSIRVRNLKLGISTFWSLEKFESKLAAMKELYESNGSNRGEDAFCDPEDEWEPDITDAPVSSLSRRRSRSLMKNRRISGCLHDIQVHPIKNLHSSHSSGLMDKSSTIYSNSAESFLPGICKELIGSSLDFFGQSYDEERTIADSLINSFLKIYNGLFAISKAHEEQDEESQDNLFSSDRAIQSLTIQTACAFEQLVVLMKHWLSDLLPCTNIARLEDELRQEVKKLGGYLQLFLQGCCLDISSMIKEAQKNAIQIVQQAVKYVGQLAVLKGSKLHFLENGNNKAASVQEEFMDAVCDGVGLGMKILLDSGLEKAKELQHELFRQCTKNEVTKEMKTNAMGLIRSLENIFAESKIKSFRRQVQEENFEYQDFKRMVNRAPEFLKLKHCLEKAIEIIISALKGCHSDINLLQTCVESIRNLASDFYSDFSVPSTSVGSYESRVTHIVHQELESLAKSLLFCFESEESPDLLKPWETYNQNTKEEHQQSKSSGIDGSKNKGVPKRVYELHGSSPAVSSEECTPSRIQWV
UniProt Q9H1H9: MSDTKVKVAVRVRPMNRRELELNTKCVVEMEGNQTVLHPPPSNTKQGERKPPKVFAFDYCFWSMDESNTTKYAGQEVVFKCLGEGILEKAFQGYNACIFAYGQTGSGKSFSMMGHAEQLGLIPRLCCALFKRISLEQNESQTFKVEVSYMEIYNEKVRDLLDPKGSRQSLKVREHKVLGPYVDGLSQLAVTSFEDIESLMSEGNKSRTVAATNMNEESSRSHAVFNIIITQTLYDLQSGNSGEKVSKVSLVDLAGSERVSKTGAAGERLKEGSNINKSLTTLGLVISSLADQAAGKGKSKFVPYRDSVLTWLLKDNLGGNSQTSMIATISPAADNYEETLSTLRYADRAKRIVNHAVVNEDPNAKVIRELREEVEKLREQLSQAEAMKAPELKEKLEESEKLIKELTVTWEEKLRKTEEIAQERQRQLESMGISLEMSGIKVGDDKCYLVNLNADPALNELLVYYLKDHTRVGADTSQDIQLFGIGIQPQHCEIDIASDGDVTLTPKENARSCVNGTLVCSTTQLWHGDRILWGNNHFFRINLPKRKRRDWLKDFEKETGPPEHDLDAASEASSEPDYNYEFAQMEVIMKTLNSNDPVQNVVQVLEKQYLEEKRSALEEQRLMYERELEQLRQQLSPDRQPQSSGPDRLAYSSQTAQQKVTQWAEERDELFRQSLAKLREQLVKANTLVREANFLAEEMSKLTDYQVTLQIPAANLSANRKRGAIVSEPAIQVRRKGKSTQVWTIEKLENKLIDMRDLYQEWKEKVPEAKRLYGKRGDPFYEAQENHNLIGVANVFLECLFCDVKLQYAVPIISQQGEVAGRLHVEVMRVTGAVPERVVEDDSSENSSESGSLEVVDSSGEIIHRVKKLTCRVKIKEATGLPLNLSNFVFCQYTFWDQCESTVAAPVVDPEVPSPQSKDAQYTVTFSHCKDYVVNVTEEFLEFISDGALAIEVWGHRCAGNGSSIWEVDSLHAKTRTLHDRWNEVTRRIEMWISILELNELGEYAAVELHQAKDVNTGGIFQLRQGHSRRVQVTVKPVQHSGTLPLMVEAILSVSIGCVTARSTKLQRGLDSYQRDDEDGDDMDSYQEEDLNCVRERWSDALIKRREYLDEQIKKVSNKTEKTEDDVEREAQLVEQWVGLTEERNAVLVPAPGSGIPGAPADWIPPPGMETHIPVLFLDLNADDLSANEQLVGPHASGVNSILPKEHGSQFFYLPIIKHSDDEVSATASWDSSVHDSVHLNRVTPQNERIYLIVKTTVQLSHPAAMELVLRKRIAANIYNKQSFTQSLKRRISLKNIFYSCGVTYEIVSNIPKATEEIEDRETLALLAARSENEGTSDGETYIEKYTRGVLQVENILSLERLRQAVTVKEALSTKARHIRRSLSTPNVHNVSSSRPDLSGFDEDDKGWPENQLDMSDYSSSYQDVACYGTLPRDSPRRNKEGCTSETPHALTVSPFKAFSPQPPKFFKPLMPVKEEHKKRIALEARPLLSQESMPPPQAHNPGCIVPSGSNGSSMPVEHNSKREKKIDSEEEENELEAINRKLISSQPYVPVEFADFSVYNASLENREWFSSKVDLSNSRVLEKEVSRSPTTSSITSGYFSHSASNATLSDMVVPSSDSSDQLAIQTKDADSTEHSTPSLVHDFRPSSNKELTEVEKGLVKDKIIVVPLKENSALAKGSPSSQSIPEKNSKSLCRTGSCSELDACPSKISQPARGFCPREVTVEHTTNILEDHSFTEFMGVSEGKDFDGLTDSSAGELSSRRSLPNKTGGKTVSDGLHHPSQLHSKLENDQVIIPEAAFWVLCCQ

Experiments:
Test in all cases: log2 fold change, soluble protein after heating vs DMSO (PISA); higher = thermal stabilisation; K562 lysate, 10 uM; active = over 0.2 and 3.5 SD of the protein, either way, in both replicates (recomputed)
erlotinib = compound: C#Cc1cccc(Nc2ncnc3cc(OCCOC)c(OCCOC)cc23)c1 [erlotinib]
How it was run: (§1)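 Following dounce homogenisation of K562 pellets in PBS pH 7.4 with 1 mM MgCl2, crude extract at 1 mg/mL protein was incubated for 30 min with 10 μM compound. Aliquots were then heated for 3 min over 48°C-58°C and pooled, NP-40 was added to 0.5% at 4°C, and soluble protein was recovered as the supernatant at 21,000xg for 90 min. Channel-sum-equalised TMTpro 16plex LC-MS/MS quantified this protein. Each value, from duplicates, is a log-two fold change in thermal stability relative to solvent controls.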

[1] = compound: C/C(=N\NC(=O)C1=CC(=CC=C1)S(=O)(=O)N2CCOCC2)/C3=C(C=CC(=C3)Cl)O
How it was run: as §1

[2] = compound: C1=CC(=CC=C1C2=NC3=C(N2)C=C(C=C3)C(=O)N)OC4=CC=C(C=C4)Cl
How it was run: as §1

[3] = compound: C1=CC2=C(C=CC(=C2)/C=C\3/C(=O)NC(=NCC4=CC=CS4)S3)N=C1
How it was run: as §1

[4] = compound: C1=CC2=NC=CN=C2C=C1/C=C/3\C(=O)NC(=O)S3
How it was run: as §1

[5] = compound: C1=CC=C(C=C1)C2=NC(=C(N2)C3=CC=NC=C3)C4=CC(=C(C=C4)Cl)O
How it was run: as §1

[6] = compound: C1=CC=C2C(=C1)C3=NNC4=CC=CC(=C43)C2=O
How it was run: as §1

[7] = compound: C1CCN(C1)C(=O)NC2=CC=CC(=C2)NC3=NC=C(C(=N3)NCCC4=CN=CN4)Br
How it was run: as §1

[8] = compound: C1CN(CCC1(CC2=CC=C(C=C2)Cl)N)C3=NC=NC4=C3C=CN4
How it was run: as §1

IRAK-1-4 Inhibitor I = compound: C1COCCN1CCN2C3=CC=CC=C3N=C2NC(=O)C4=CC(=CC=C4)[N+](=O)[O-] [IRAK-1-4 Inhibitor I]
How it was run: as §1

Measured: log2 fold change

LAMB1 (UniProt P07942)
inactive: erlotinib -0.036 | [1] 0.069 | [2] 0.031 | [3] -0.054 | [4] -0.029 | [5] -0.001 | [6] -0.022 | [7] 0.036 | [8] 0.03 | IRAK-1-4 Inhibitor I -0.021

KIAA1324L (UniProt A8MWY0)
inactive: erlotinib -0.005 | [1] -0.001 | [2] 0.064 | [3] -0.003 | [4] -0.038 | [5] -0.014 | [6] 0.013 | [7] -0.06 | [8] 0.02 | IRAK-1-4 Inhibitor I 0.013

KLHL18 (UniProt O94889)
inactive: erlotinib 0.019 | [1] -0.01 | [2] -0.033 | [3] -0.057 | [4] 0.055 | [5] 0.042 | [6] -0.064 | [7] -0.042 | [8] 0.026 | IRAK-1-4 Inhibitor I 0.003

KIAA0319L (UniProt Q8IZA0)
inactive: erlotinib -0.042 | [1] 0.02 | [2] 0.015 | [3] 0.017 | [4] -0.044 | [5] -0.014 | [6] -0.021 | [7] -0.039 | [8] -0.011 | IRAK-1-4 Inhibitor I 0.002

KHK isoform 2 (UniProt P50053)
inactive: erlotinib -0.07 | [1] 0.024 | [2] 0.072 | [3] -0.005 | [4] 0.044 | [5] 0.069 | [6] 0.044 | [7] 0.032 | [8] -0.018 | IRAK-1-4 Inhibitor I 0.084

KYAT1 (UniProt Q16773)
inactive: erlotinib -0.009 | [1] -0.03 | [2] 0.012 | [3] 0.045 | [4] 0.04 | [5] 0.01 | [6] 0.006 | [7] 0.028 | [8] -0.007 | IRAK-1-4 Inhibitor I 0.016

KPNA1 (UniProt P52294)
inactive: erlotinib 0.032 | [1] 0.009 | [2] -0.012 | [3] 0.014 | [4] 0.021 | [5] 0.01 | [6] -0.022 | [7] -0.037 | [8] -0.021 | IRAK-1-4 Inhibitor I -0.002

KMT2A isoform 3 (UniProt Q03164)
inactive: erlotinib -0.022 | [1] 0.351 | [2] 0.041 | [3] -0.047 | [4] -0.014 | [5] -0.069 | [6] -0.004 | [7] 0.005 | [8] -0.06 | IRAK-1-4 Inhibitor I 0.07

KIAA1143 (UniProt Q96AT1)
inactive: erlotinib 0.007 | [1] -0.135 | [2] 0.115 | [3] -0.007 | [4] -0.055 | [5] -0.009 | [6] 0.027 | [7] -0.017 | [8] -0.006 | IRAK-1-4 Inhibitor I 0.026

L1RE1 (UniProt Q9UN81)
inactive: erlotinib -0.001 | [1] -0.045 | [2] -0.044 | [3] -0.11 | [4] 0.158 | [5] 0.015 | [6] 0.011 | [7] 0.022 | [8] -0.079 | IRAK-1-4 Inhibitor I -0.004

KIF3B (UniProt O15066)
inactive: erlotinib -0.024 | [1] 0.086 | [2] 0.065 | [3] 0.002 | [4] -0.058 | [5] 0.239 | [6] 0.037 | [7] 0.086 | [8] -0.003 | IRAK-1-4 Inhibitor I -0.058

KDM5B isoform 2 (UniProt Q9UGL1)
inactive: erlotinib 0.07 | [1] 0.03 | [2] 0.006 | [3] -0.021 | [4] 0.031 | [5] 0.012 | [6] -0.074 | [7] -0.035 | [8] 0.099 | IRAK-1-4 Inhibitor I 0.011

Reprinted at random: 2 records from the list.
KIF3B (UniProt O15066)
inactive: erlotinib -0.024 | [1] 0.086 | [2] 0.065 | [3] 0.002 | [4] -0.058 | [5] 0.239 | [6] 0.037 | [7] 0.086 | [8] -0.003 | IRAK-1-4 Inhibitor I -0.058

L1RE1 (UniProt Q9UN81)
inactive: erlotinib -0.001 | [1] -0.045 | [2] -0.044 | [3] -0.11 | [4] 0.158 | [5] 0.015 | [6] 0.011 | [7] 0.022 | [8] -0.079 | IRAK-1-4 Inhibitor I -0.004

(next part)

KHSRP (UniProt Q92945)
inactive: erlotinib -0.044 | [1] -0.011 | [2] 0.003 | [3] -0.008 | [4] 0.006 | [5] 0.004 | [6] 0.026 | [7] 0.011 | [8] -0.011 | IRAK-1-4 Inhibitor I -0.002

KSR1 (UniProt Q8IVT5)
inactive: erlotinib 0.011 | [1] -0.099 | [2] -0.038 | [3] 0.058 | [4] 0.022 | [5] 0.059 | [6] -0.078 | [7] 0.015 | [8] -0.037 | IRAK-1-4 Inhibitor I -0.008

KLHL36 (UniProt Q8N4N3)
inactive: erlotinib -0.047 | [1] -0.001 | [2] 0.06 | [3] -0.112 | [5] -0.041 | [6] 0.013 | [7] -0.009 | [8] 0.084 | IRAK-1-4 Inhibitor I 0.011
active: [4] -0.313

LARP1 (UniProt Q6PKG0)
inactive: erlotinib -0.005 | [1] 0.031 | [2] -0.029 | [3] -0.001 | [4] -0.013 | [5] 0.014 | [6] 0.017 | [7] 0.023 | [8] -0.017 | IRAK-1-4 Inhibitor I -0.012

KHDC4 (UniProt Q7Z7F0)
inactive: erlotinib -0.021 | [1] -0.063 | [2] 0.015 | [3] -0.025 | [4] -0.014 | [5] -0.063 | [6] 0.006 | [7] -0.023 | [8] 0.014 | IRAK-1-4 Inhibitor I 0.062

KIF5A (UniProt Q12840)
inactive: erlotinib 0.035 | [1] 0.011 | [2] 0.01 | [3] 0 | [4] -0.024 | [5] 0.037 | [6] -0.014 | [7] -0.033 | [8] -0.004 | IRAK-1-4 Inhibitor I 0.029

KIF5B (UniProt P33176)
inactive: erlotinib 0.006 | [1] 0.007 | [2] 0.013 | [3] 0 | [4] -0.026 | [5] 0.019 | [6] -0.02 | [7] 0.005 | [8] 0.004 | IRAK-1-4 Inhibitor I -0.013

KPNA4 (UniProt O00629)
inactive: erlotinib -0.015 | [1] -0.037 | [2] 0.046 | [3] 0.022 | [4] -0.014 | [5] -0.013 | [6] -0.007 | [7] -0.045 | [8] -0.012 | IRAK-1-4 Inhibitor I 0.038

KLHDC10 (UniProt Q6PID8)
inactive: erlotinib 0.108 | [1] -0.117 | [2] 0.09 | [3] 0.023 | [4] -0.106 | [5] -0.033 | [6] -0.022 | [7] -0.069 | [8] 0.185 | IRAK-1-4 Inhibitor I 0.051

KIF14 (UniProt Q15058)
inactive: erlotinib 0.031 | [1] -0.06 | [2] 0.016 | [3] -0.04 | [4] -0.176 | [5] 0.01 | [6] -0.032 | [7] -0.002 | [8] 0.008 | IRAK-1-4 Inhibitor I -0.014

KIF13A isoform 4 (UniProt Q9H1H9)
inactive: erlotinib 0.05 | [1] -0.014 | [2] -0.003 | [3] -0.013 | [4] -0.008 | [5] -0.011 | [6] 0.059 | [7] -0.009 | [8] 0.011 | IRAK-1-4 Inhibitor I -0.041

KTI12 (UniProt Q96EK9)
inactive: erlotinib 0.001 | [1] -0.066 | [2] 0.035 | [3] -0.041 | [4] -0.022 | [5] -0.008 | [6] -0.149 | [7] -0.046 | [8] 0.056 | IRAK-1-4 Inhibitor I -0.008

KIF11 (UniProt P52732)
inactive: erlotinib -0.014 | [1] 0.012 | [2] -0.016 | [3] -0.004 | [4] -0.004 | [5] -0.004 | [6] -0.023 | [7] -0.005 | [8] -0.013 | IRAK-1-4 Inhibitor I -0.033

KLC2 (UniProt Q9H0B6)
inactive: erlotinib -0.008 | [1] 0.065 | [2] 0.07 | [3] 0.008 | [4] -0.056 | [5] 0.004 | [6] -0.061 | [7] -0.048 | [8] -0.056 | IRAK-1-4 Inhibitor I -0.009

LAP3 (UniProt P28838)
inactive: erlotinib -0.034 | [1] 0.08 | [2] 0.082 | [3] -0.022 | [4] 0.013 | [5] -0.026 | [6] -0.017 | [7] 0.027 | [8] 0.008 | IRAK-1-4 Inhibitor I 0.061

KHNYN (UniProt O15037)
inactive: erlotinib 0.036 | [1] 0.017 | [2] 0.077 | [3] -0.019 | [4] 0.02 | [5] -0.057 | [6] -0.104 | [7] -0.022 | [8] 0.004 | IRAK-1-4 Inhibitor I 0.019

LARP4B (UniProt Q92615)
inactive: erlotinib -0.019 | [1] 0.013 | [2] -0.027 | [3] -0.005 | [4] 0.009 | [5] -0.021 | [6] 0.033 | [7] 0.012 | [8] -0.033 | IRAK-1-4 Inhibitor I -0.025

KIF2A isoform 4 (UniProt O00139)
inactive: erlotinib -0.008 | [1] 0.02 | [2] -0.014 | [3] -0.007 | [4] -0.037 | [5] 0.001 | [6] -0.022 | [7] -0.02 | [8] -0.041 | IRAK-1-4 Inhibitor I -0.026
